Measurements: article PMC9441002
Numbering of substitutions follows the chain as printed. These are yes or no findings as the source states them, for the method shown. Binding seen in cells or lysates may run through a third protein. Some entries that bind do so weakly or less than the wild type.

By UniProt entry, the sequences of proteins in these tests, tags left out.
UniProt P15056: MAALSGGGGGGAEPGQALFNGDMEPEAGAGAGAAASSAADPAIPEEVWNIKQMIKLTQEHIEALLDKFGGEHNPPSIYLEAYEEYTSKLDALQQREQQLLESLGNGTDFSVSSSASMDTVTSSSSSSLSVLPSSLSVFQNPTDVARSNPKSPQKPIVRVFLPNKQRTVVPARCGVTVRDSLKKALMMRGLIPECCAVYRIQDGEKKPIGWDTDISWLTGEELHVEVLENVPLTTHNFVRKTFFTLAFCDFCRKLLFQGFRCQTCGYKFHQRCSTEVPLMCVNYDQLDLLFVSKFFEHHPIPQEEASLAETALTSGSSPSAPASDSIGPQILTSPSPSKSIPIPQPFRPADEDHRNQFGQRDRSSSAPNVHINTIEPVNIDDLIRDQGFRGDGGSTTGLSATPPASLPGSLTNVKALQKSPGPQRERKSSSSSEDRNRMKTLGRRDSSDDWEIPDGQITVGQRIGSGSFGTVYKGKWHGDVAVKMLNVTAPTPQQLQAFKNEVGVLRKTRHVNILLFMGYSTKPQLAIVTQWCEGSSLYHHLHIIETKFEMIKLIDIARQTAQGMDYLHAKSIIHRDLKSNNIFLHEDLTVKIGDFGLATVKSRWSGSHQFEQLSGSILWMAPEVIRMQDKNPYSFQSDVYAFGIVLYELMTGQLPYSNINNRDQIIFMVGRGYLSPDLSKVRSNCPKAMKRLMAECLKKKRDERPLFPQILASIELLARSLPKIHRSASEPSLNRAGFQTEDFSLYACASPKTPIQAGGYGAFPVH

Assays:
Test in all cases: co-IP; immunoprecipitation with α-KSR1 antibodies from lysates of 293T cells transfected with KSR1 vectors; 2 mg lysate, 50 mM Tris-HCl pH 7.4, 150 mM NaCl, 0.5% NP-40, 4 °C; blots for KSR1, BRAF, RAF1 and MEK1
KSR1^D683A (mouse) = molecular target: T1, KSR1^D683A (mouse) (UniProt Q61097)
T1 sequence: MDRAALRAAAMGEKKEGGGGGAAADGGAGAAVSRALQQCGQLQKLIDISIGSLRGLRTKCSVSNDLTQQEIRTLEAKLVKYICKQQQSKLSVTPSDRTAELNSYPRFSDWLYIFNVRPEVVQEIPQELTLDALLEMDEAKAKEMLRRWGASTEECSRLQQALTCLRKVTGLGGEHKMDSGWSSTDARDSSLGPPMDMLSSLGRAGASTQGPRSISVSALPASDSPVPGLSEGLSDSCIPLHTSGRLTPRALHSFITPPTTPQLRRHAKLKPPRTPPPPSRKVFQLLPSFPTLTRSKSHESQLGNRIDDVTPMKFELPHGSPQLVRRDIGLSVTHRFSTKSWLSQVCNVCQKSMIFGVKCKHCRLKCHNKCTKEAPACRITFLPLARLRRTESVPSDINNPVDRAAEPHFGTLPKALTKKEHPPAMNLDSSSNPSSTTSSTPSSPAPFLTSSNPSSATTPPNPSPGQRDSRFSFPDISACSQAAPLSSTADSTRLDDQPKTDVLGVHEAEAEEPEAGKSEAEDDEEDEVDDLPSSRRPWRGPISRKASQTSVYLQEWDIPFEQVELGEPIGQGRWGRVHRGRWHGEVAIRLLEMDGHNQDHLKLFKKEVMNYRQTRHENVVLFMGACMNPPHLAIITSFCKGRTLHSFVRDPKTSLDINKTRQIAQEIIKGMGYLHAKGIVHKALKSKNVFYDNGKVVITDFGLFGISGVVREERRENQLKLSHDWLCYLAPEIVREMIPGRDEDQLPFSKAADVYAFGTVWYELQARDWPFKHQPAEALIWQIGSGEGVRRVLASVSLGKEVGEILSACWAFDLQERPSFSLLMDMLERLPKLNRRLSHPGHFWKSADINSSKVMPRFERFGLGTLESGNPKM

KSR1^D700A (mouse) = molecular target: T2, KSR1^D700A (mouse) (UniProt Q61097)
T2 sequence: T1 sequence with A683D, D700A

[1] = molecular target: T3, kinase suppressor of RAS 1 (KSR1), wild type (mouse) (UniProt Q61097)
T3 sequence: T1 sequence with A683D

KSR1^F701A (mouse) = molecular target: T4, KSR1^F701A (mouse) (UniProt Q61097)
T4 sequence: T1 sequence with A683D, F701A

Measured: binding

BRAF (from UniProt P15056 1-766)
binds: all assays above
